1 molecule from paper PMC10333884, “Large‐scale phosphomimetic screening identifies phospho‐modulated motif‐based protein interactions” (Molecular Systems Biology, 2023) can be followed below.

The assay has as its target T1, GGA1 VHS domain (human) (UniProt Q9UJY5).
T1 sequence: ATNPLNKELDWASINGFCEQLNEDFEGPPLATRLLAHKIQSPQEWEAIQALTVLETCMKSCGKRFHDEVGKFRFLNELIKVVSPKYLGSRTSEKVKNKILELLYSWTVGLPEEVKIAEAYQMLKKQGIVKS
Put plainly: ITC; peptide titrated into the protein domain in about 10-fold excess, 16 injections, iTC200; 50 mM sodium phosphate pH 7.4, 1 mM DTT; technical triplicates (GGA1 VHS: duplicates); both purified. For orientation: ITC needs no label: the signal is the heat of the interaction.

These are yes or no findings as the source states them, for the method shown. Some binding calls cover weakened binding; strength is not graded here.

B1: RNF11 6-21 peptide, wild-type (peptide)
peptide: YKSPTSDDISLLHESQS
Regarding B1, the binding entry was “binds”.
